Measured values as given in PubChem BioAssay AID504467 (National Center for Advancing Translational Sciences (NCATS), 2011).
About 7,700 (2.3%) of roughly 330,000 compounds were called active. The inconclusive results got no clear call from the source; some entries with a clear call stand among them for comparison. The call rests on the fitted dose curve; in most records, active means well fitted inhibition curve with a large enough effect; inconclusive means small, poorly fitted or top-dose-only effect, or effect the other way; inactive means flat fitted curve, though single readings scatter. A potency beside an inconclusive call is a rough fit, not a confirmed value.

Assay: qHTS screen for small molecules that inhibit ELG1-dependent DNA repair in human embryonic kidney (HEK293T) cells expressing luciferase-tagged ELG1; further: nearly all actives have a fitted effect of over 55% in size
Conditions: HEK293T ELG1-luciferase reporter, luminescence, 16 h, DNA damage induced by 5-fluorouridine; activity change, negative = inhibition: at 46.1 µM (top of the series)
Summary of the method: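 5-Fluorouridine DNA damage + compound/DMSO, 2,000 cells/well, 16 h, 37 °C/5% CO2. ONE-Glo, 30 min RT, luminescence. Readout = decrease in reporter signal.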
On the % scale 0 is the no-effect control and ±100 the full control effect; potency means the concentration at half of the fitted maximal effect.

Row | Structure (SMILES) | activity change, negative = inhibition | Potency
1 | COc1ccc(-c2csc3nc(C)nc(N4CCN(C(C)=O)CC4)c23)cc1OC | inactive: 5.01% | 
2 | O=C1c2ccccc2-c2ccc(C(=O)N3CCCCC3)cc21 |  | inconclusive: 20.6 µM [activator, partial curve]
3 | COc1ccc(C(=O)c2c(O)cc(-c3ccc(OC)cc3)oc2=O)cc1 |  | inconclusive: 10.3 µM [activator, partial curve]
4 | CCOC(=O)c1c(-c2ccc(C)cc2)csc1/N=C/N(C)C |  | inconclusive: 29.1 µM [inhibitor, single point]
5 | O=[N+]([O-])c1ccc(N2CCN(c3nc(-c4ccc(Cl)cc4)cs3)CC2)cc1 |  | inconclusive: 29.1 µM [inhibitor, single point]
6 | O=C(CSc1ccc2ccccc2c1)N1CCN(c2ccc(O)cc2)CC1 |  | inconclusive: 7.3 µM [inhibitor, single point]
7 | CCC(=O)c1ccc(OCC(O)CN2CCN(S(=O)(=O)N3CCCCC3)CC2)cc1 (stereo not given) |  | inconclusive: 18.4 µM [inhibitor, single point]
8 | Cc1cc(C)cc(NC(=O)NC(C)C2CCCO2)c1 (stereo not given) | inactive: 11.9% | 
9 | Cn1cccc1C(=O)NNC(=O)COc1ccc(C#N)cc1 |  | inconclusive: 1.16 µM [inhibitor, single point]
10 | COc1ccc(C(=O)c2ccc(Cl)cc2)cc1 |  | inconclusive: 18.4 µM [activator, partial curve]
11 | COc1ccc2c(c1)N1CCN=C1N2C |  | inconclusive: 32.6 µM [activator, partial curve, poor fit]
12 | Cc1cnc(NC(=O)CSc2nnc(-c3ccccc3)n2Cc2ccccc2)s1 |  | inconclusive: 13 µM [inhibitor, partial curve]
13 | CCN(CC)C(=O)c1ccc2nc(-c3ccccc3)c(-c3ccccc3)nc2c1 |  | inconclusive: 20.6 µM [inhibitor, partial curve, poor fit]
14 | Nc1ccc(CSc2ccc(Cl)cc2)cc1 |  | inconclusive: 29.1 µM [activator, single point]
15 | CCCCOc1ccc(Cc2n[nH]c(=S)n2N)cc1 | inactive: -1.37% | 
16 | CCCn1c(SCC(=O)Nc2ccccc2-c2ccccc2)nnc1-c1ccoc1C |  | inconclusive: 11.2 µM [inhibitor, partial curve, poor fit]
17 | COc1ccc(CNC(=O)C(=O)NCC2CCCO2)cc1 (stereo not given) |  | inconclusive: 23.1 µM [activator, partial curve, poor fit]
18 | CCN1C(=O)C(CC(=O)Nc2ccc(OC)cc2)N(CCc2ccc(F)cc2)C1=S (stereo not given) |  | inconclusive: 29.1 µM [inhibitor, single point]
19 | O=S(=O)(Nc1ccc2c(c1)nc1n2CCN(Cc2ccccc2)C1)c1ccc(F)cc1 |  | inconclusive: 18.4 µM [inhibitor, single point]
20 | Cn1c(=O)cc(OCCCC(=O)NCc2ccccn2)c2ccccc21 |  | inconclusive: 13 µM [activator, partial curve]
21 | O=C(NNC(=O)c1ccc(Br)s1)c1csc(N2CCOCC2)n1 | inactive: 18.9% | 
22 | O=C(NC1CCC(O)CC1)c1ccc(NS(=O)(=O)c2cccc([N+](=O)[O-])c2)cc1 (stereo not given) |  | inconclusive: 3.55 µM [activator, full curve, poor fit]
23 | O=C(CSc1ccccc1)N1CCC(N2CCC(C(=O)N3CCCC3)CC2)CC1 |  | inconclusive: 20.6 µM [activator, partial curve, poor fit]
24 | COc1cccc(CN2CCN(C(=O)c3cccc4ccccc34)CC2)c1OC |  | inconclusive: 14.6 µM [inhibitor, partial curve]

Ordered by formula weight (descending): some entries from above.
Row | Structure (SMILES) | activity change, negative = inhibition | Potency
7 | CCC(=O)c1ccc(OCC(O)CN2CCN(S(=O)(=O)N3CCCCC3)CC2)cc1 (stereo not given) |  | inconclusive: 18.4 µM [inhibitor, single point]
19 | O=S(=O)(Nc1ccc2c(c1)nc1n2CCN(Cc2ccccc2)C1)c1ccc(F)cc1 |  | inconclusive: 18.4 µM [inhibitor, single point]
16 | CCCn1c(SCC(=O)Nc2ccccc2-c2ccccc2)nnc1-c1ccoc1C |  | inconclusive: 11.2 µM [inhibitor, partial curve, poor fit]
18 | CCN1C(=O)C(CC(=O)Nc2ccc(OC)cc2)N(CCc2ccc(F)cc2)C1=S (stereo not given) |  | inconclusive: 29.1 µM [inhibitor, single point]
22 | O=C(NC1CCC(O)CC1)c1ccc(NS(=O)(=O)c2cccc([N+](=O)[O-])c2)cc1 (stereo not given) |  | inconclusive: 3.55 µM [activator, full curve, poor fit]
1 | COc1ccc(-c2csc3nc(C)nc(N4CCN(C(C)=O)CC4)c23)cc1OC | inactive: 5.01% | 
24 | COc1cccc(CN2CCN(C(=O)c3cccc4ccccc34)CC2)c1OC |  | inconclusive: 14.6 µM [inhibitor, partial curve]
13 | CCN(CC)C(=O)c1ccc2nc(-c3ccccc3)c(-c3ccccc3)nc2c1 |  | inconclusive: 20.6 µM [inhibitor, partial curve, poor fit]
6 | O=C(CSc1ccc2ccccc2c1)N1CCN(c2ccc(O)cc2)CC1 |  | inconclusive: 7.3 µM [inhibitor, single point]
20 | Cn1c(=O)cc(OCCCC(=O)NCc2ccccn2)c2ccccc21 |  | inconclusive: 13 µM [activator, partial curve]
4 | CCOC(=O)c1c(-c2ccc(C)cc2)csc1/N=C/N(C)C |  | inconclusive: 29.1 µM [inhibitor, single point]
2 | O=C1c2ccccc2-c2ccc(C(=O)N3CCCCC3)cc21 |  | inconclusive: 20.6 µM [activator, partial curve]
14 | Nc1ccc(CSc2ccc(Cl)cc2)cc1 |  | inconclusive: 29.1 µM [activator, single point]
10 | COc1ccc(C(=O)c2ccc(Cl)cc2)cc1 |  | inconclusive: 18.4 µM [activator, partial curve]
11 | COc1ccc2c(c1)N1CCN=C1N2C |  | inconclusive: 32.6 µM [activator, partial curve, poor fit]

Following part.

Row | Structure (SMILES) | activity change, negative = inhibition | Potency
25 | Clc1cncc(Cl)c1NNc1c2ccccc2nc2ccccc12 | inactive: 3.7% | 
26 | COC(=O)c1cn(CC(=O)NCc2cccs2)c2ccccc12 |  | inconclusive: 23.1 µM [activator, partial curve]
27 | CCOc1ccc(C(=O)Nc2cccc(-c3nc4ccccc4[nH]3)c2C)cc1[N+](=O)[O-] |  | inconclusive: 32.6 µM [inhibitor, partial curve, poor fit]
28 | Cc1ccc(/C=C/C(=O)N(Cc2cccs2)C2CCS(=O)(=O)C2)cc1 (stereo not given) | inactive: 2.05% | 
29 | COc1ccc(CCNC(=O)COC(=O)CCC(=O)c2cccs2)cc1OC |  | inconclusive: 13 µM [activator, partial curve]
30 | CCn1nc(C)c(CN2CCC(n3nccc3NC(=O)CCCc3ccccc3)CC2)c1C |  | inconclusive: 29.1 µM [inhibitor, single point]
31 | COc1ccc(NC(=O)C2=CC(c3ccco3)=NS(=O)(=O)N2C)cc1 |  | inconclusive: 29.1 µM [activator, single point]
32 | OCc1cc(-c2ccccn2)no1 |  | inconclusive: 2.82 µM [activator, single point]
33 | O=C(NCC1CCCO1)c1nn2c(C(F)(F)F)cc(-c3ccc(Br)o3)nc2c1Br (stereo not given) | inactive: -2.82% | 
34 | CCNC(=O)NC(=O)C(C)OC(=O)Cc1coc2cc3c(cc12)CCC3 (stereo not given) |  | inconclusive: 32.6 µM [inhibitor, single point]
35 | COc1ccc(-n2ncc3c(NCC4CCCO4)ncnc32)cc1 (stereo not given) |  | inconclusive: 2.31 µM [activator, full curve]
36 | O=c1c2sccc2[nH]c(=S)n1-c1ccccc1 | inactive: 0% | 
37 | CN(CC(=O)Nc1ccc(F)cc1)C(=O)CCc1nc2sc3c(c2c(=O)[nH]1)CCCC3 |  | inconclusive: 9.2 µM [activator, single point]
38 | COc1ccc(/C=N/Nc2ncc(Br)cn2)c(OC)c1 |  | inconclusive: 9.2 µM [activator, partial curve]
39 | COc1ccc(-c2nn(-c3ccccc3)cc2C(=O)O)cc1N | inactive: -3.74% | 
40 | Clc1ccccc1Cn1nnc2ccccc21 | inactive: 13.3% | 
41 | COc1ccc(C(=O)Nc2nc(CC(=O)NCCc3ccccc3OC)cs2)cc1 |  | inconclusive: 32.6 µM [inhibitor, single point]
42 | COc1ccc(-c2nc(C#N)c(NCC3CCCO3)o2)cc1OC (stereo not given) |  | inconclusive: 9.2 µM [activator, partial curve]
43 | Cc1ccnc(NC(=O)c2ccc(Cl)c(NC(=O)c3ccccc3C)c2)c1 |  | inconclusive: 16.4 µM [inhibitor, single point]
44 | O=C(c1ccc2c(=O)n(Cc3ccccc3Cl)c(=S)[nH]c2c1)N1CCOCC1 | inactive: -0.632% | 
45 | COc1cc(C(=O)NCC(c2cccs2)N(C)C)cc(Cl)c1OC(C)C (stereo not given) |  | inconclusive: 32.6 µM [inhibitor, single point]
46 | O=C(NC1CC1)c1sc2cc([N+](=O)[O-])ccc2c1Cl |  | inconclusive: 18.4 µM [activator, partial curve]
47 | COc1ccc2c(C)nc(Nc3nc(C)c(C)c(=O)[nH]3)nc2c1 |  | inconclusive: 32.6 µM [inhibitor, single point]
48 | COc1ccc(CC(=O)c2ccc(OC)c(OC)c2)cc1 |  | inconclusive: 20.6 µM [activator, single point]

Row | Structure (SMILES) | activity change, negative = inhibition | Potency
49 | CC(=O)c1c(C(C)=O)c(C)n(-c2nc(-c3ccccc3)c(C)s2)c1C | inactive: -19.3% | 
50 | COc1ccccc1CNC(=O)c1ccc(OC(C)C)cc1 |  | inconclusive: 16.4 µM [activator, single point]
51 | Cc1ccc(C(C(=O)NCc2ccco2)N(C(=O)CNC(=O)c2cccs2)c2ccc(C)cc2C)cc1 (stereo not given) | inactive: 27.4% | 
52 | O=C(Nc1nnc(CC2=CCCCC2)s1)Nc1ccccc1F |  | inconclusive: 16.4 µM [activator, partial curve]
53 | CCOC(=O)c1sc(NS(=O)(=O)c2ccccc2Cl)nc1C | inactive: 1.22% | 
54 | Cc1ccc(S(=O)(=O)N2CCCCC2)cc1NC(=O)CSc1ccc2c(c1)OCCO2 | inactive: -26.4% | 
55 | CSc1ccc(CC(=O)N2CCC(n3nccc3NC(=O)C3CC3)CC2)cc1 |  | inconclusive: 18.3 µM [activator, partial curve]
56 | Cc1ccccc1NC(=O)Cc1nc(COC(=O)c2cccc(C)c2O)cs1 | inactive: -3.21% | 
57 | O=C(Nc1ccc(Br)cc1)NC1CCCCCCC1 |  | inconclusive: 4.61 µM [activator, full curve]
58 | CCC(=O)Oc1ccc(C(=O)Nc2ccccc2C(=O)NCC(C)C)cc1 |  | inconclusive: 23.1 µM [inhibitor, single point]
59 | CC(C)=NNc1nc2sc3c(c2c(=O)[nH]1)CC(C)(C)OC3 | inactive: 6.99% | 
60 | Cc1ccccc1OCCn1cc(C(=S)N2CCN(C)CC2)c2ccccc21 | inactive: -22.3% | 
61 | CC(=O)c1c(C)oc2ccc(N(C(C)=O)S(=O)(=O)c3cccc4cccnc34)cc12 |  | active: 5.8 µM
62 | Cc1ccc(S(=O)(=O)NC2CC(C)(C)NC(C)(C)C2)c(C)c1C |  | inconclusive: 31.6 µM [activator, partial curve, poor fit]
63 | Cn1c2ccccc2c2c(C(=O)N3CCN(C(=O)c4ccco4)CC3)cn(C3CCCCC3)c(=O)c21 |  | inconclusive: 14.6 µM [inhibitor, partial curve]
64 | O=C(NC(=S)N1CCN(c2ccc(F)cc2)CC1)C12CC3CC(CC(C3)C1)C2 |  | inconclusive: 32.6 µM [inhibitor, partial curve, poor fit]
65 | CCN(c1ccccc1)S(=O)(=O)c1ccc(C(=O)NCC2(N(C)C)CCCCC2)cc1 | inactive: 18.2% | 
66 | c1ccc2c(c1)CCOC2CNCCCN1CCCCC1 (stereo not given) | inactive: 5.85% | 
67 | Cc1c(C(=O)NCc2ccccn2)oc2ccc(Br)cc12 |  | inconclusive: 18.3 µM [activator, partial curve]
68 | CCOC(=O)N1CCC(Nc2c(-c3ccc(C)cc3)c(=O)c2=O)CC1 |  | inconclusive: 18.4 µM [inhibitor, partial curve, poor fit]
69 | Cc1ccc(S(=O)(=O)NCc2ccncc2)cc1C | inactive: 19% | 
70 | CC(C)c1ccc(CN(C(=O)c2cc3ccccc3oc2=O)C2CCS(=O)(=O)C2)cc1 (stereo not given) |  | inconclusive: 20.6 µM [activator, single point]
